Source: PubChem BioAssay (NCATS)
Inconclusive results, whose numbers are uncertain, are shown with a selection of clear calls. Potencies of inconclusive entries are doubtful fits and often do not repeat. Activity calls are given as the source filed them. Calls follow the shape of the dose curve; as a rule, active = well fitted curve in the direction sought with a large enough effect; inconclusive = small, poorly fitted or top-dose-only effect, or another doubt; inactive = no such curve, though single readings can be large; an effect the other way counts as inactive or inconclusive.

By UniProt entry, the sequences of proteins in these tests, tags left out. Where a name states a change or a piece, a line headed by the entry shows the natural chain unless it says otherwise.
UniProt Q8WZA2: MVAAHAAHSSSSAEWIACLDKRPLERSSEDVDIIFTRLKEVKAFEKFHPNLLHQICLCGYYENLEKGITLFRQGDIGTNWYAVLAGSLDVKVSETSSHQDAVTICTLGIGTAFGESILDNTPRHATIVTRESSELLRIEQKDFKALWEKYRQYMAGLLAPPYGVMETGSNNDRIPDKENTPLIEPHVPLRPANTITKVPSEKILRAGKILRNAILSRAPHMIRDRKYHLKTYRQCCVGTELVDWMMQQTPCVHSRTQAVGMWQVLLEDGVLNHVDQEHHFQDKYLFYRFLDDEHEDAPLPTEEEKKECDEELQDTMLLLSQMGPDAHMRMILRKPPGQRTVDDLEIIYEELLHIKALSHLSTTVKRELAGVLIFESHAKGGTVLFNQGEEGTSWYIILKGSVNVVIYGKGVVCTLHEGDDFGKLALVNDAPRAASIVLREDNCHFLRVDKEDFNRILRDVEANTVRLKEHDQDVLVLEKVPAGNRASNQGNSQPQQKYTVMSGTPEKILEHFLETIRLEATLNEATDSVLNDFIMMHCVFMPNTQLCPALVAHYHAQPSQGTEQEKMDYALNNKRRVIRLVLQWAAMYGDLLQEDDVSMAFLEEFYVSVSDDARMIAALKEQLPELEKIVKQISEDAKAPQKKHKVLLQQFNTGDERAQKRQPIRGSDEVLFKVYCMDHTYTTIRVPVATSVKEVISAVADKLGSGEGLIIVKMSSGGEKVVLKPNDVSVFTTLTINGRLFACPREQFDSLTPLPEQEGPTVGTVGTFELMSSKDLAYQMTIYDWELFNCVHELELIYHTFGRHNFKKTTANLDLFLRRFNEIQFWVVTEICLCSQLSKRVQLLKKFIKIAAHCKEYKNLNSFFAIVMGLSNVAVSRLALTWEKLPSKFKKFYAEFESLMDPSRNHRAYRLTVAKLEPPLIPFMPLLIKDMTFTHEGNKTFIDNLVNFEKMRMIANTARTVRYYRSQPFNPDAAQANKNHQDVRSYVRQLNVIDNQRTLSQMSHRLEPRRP
UniProt P11473: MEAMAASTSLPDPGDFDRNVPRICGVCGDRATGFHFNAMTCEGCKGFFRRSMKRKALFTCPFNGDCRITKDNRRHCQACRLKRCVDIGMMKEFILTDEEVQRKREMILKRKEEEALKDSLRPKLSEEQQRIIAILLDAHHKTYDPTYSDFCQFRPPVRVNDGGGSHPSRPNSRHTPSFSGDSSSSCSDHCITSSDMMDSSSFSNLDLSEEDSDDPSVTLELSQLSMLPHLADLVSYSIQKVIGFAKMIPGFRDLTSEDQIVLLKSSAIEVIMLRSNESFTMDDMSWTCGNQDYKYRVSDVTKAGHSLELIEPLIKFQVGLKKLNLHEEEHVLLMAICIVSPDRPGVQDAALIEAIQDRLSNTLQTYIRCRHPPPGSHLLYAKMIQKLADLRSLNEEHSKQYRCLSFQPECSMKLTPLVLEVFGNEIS
UniProt Q9Y253: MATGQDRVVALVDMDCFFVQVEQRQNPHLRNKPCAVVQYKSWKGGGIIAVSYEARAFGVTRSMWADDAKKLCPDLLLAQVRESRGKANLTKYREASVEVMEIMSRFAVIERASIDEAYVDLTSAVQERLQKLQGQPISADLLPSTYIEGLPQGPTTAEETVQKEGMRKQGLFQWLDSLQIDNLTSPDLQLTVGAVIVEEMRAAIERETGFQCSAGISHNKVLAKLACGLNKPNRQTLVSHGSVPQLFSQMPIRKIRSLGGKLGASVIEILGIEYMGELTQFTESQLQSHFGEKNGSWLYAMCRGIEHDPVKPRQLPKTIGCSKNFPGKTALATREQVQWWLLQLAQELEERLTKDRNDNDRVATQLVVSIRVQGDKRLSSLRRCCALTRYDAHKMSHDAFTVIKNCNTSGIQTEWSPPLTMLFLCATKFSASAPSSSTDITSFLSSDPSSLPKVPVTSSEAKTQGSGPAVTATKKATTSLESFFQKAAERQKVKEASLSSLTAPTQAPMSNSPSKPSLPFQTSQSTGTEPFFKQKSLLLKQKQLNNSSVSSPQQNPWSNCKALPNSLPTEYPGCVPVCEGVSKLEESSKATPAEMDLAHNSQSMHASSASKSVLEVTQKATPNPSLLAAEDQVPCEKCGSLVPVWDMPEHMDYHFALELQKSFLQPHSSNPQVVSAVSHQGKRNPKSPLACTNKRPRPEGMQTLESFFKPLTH
UniProt Q9UBT6: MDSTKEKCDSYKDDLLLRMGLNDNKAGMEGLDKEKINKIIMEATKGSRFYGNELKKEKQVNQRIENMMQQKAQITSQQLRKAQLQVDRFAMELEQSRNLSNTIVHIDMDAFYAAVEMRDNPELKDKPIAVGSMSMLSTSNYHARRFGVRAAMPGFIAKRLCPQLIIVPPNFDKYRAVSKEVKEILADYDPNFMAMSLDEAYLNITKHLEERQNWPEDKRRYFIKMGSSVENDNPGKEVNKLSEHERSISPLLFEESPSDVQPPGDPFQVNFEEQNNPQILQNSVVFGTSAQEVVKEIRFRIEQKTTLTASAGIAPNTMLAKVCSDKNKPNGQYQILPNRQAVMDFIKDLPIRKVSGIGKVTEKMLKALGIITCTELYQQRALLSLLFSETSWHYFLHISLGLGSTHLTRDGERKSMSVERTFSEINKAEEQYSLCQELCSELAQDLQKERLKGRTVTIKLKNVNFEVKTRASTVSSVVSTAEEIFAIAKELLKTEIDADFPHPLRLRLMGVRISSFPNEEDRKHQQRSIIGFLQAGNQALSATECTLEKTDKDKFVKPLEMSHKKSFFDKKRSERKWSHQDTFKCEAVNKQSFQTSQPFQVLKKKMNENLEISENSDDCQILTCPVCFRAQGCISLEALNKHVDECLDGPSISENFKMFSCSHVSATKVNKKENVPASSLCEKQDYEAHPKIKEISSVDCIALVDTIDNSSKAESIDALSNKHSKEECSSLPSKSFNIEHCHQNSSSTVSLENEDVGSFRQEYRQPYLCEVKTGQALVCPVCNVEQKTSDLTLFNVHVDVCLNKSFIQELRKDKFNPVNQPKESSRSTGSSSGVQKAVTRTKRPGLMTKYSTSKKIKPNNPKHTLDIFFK

Assays:
[1] = qHTS for Inhibitors of WRN Helicase: Thiazole Orange DNA Binding Counterscreen (AID 720499); details: thiazole orange DNA binding displacement, fluorescence; series mostly up to 57.1 µM;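 also: drop in dye fluorescence marks compound binding to DNA; nearly all actives have a fitted effect of over 60% in size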
Procedure, shortened: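 Thiazole orange displacement counterscreen: compounds added to 50 nM unlabeled DNA with 100 nM ThO. Fluorescence (ex 480, em 530 nm) read after 15 min at room temperature; activity flags nonspecific DNA binding.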

[2] = target: Rap guanine nucleotide exchange factor 3 (Homo sapiens) (UniProt O95398); test: Confirmatory qHTS for antagonist of cAMP-regulated guanine nucleotide exchange factor 3 (EPAC1) (AID 1645880); details: EPAC1 Rap1B-BODIPY-GDP exchange, fluorescence; activity, negative = inhibition: at 115 µM (top of the series); also: nearly all actives have a fitted effect of over 55% in size
Procedure, shortened: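 Nucleotide exchange uses 100 nM EPAC1, 250 nM RAP1B-BODIPY-GDP and 50 uM GDP, with compounds in a concentration-titration series. After 5 min at room temperature, fluorescence (480 nm ex/540 nm em) is read every 5 min for 30 min. Data are normalized to control ATA and DMSO.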

[3] = target: Rap guanine nucleotide exchange factor 4 (Homo sapiens) (UniProt Q8WZA2); test: Confirmatory qHTS for antagonist of cAMP-regulated guanine nucleotide exchange factor 4 (EPAC2) (AID 1645885); details: EPAC2 Rap1B-BODIPY-GDP exchange fluorescence, biochemical; activity change, negative = inhibition: at 12.7 µM (top of the series) unless noted; series mostly up to 114 µM; also: nearly all actives have a fitted effect of over 25% in size
[4] = target: Rap guanine nucleotide exchange factor 3 (Homo sapiens) (UniProt O95398); test: Counterscreen qHTS for agonist of cAMP-regulated guanine nucleotide exchange factor 3 (EPAC1) (AID 1645889); details: EPAC1 Rap1B-BODIPY-GDP exchange, fluorescence; activation: at 154 µM (top of the series) unless noted; also: nearly all actives have a fitted effect of over 40% in size; as to activation: % of control where 0% means no effect
Procedure, shortened: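 Rap1B–BODIPY-GDP (250 nM) with 50 uM GDP; compounds pin-transferred to 9.74 nM–152 uM final (activator) or from 7.32 nM upwards (inhibitor). Fluorescence Ex/Em 480/540 nm read at 5 and 30 min, then after adding cAMP or buffer, at room temperature.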

[5] = qHTS for Inhibitors of the vitamin D receptor (VDR): Hit Validation using a Texas Red Assay (AID 602201); details: VDR coregulator binding, Texas Red fluorescence polarization, agonist-bound VDR ligand-binding domain; series mostly up to 57.1 µM
Procedure, shortened: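 Fluorescence polarization with 1.5 uM VDR-LBD, LG19078 and 7 nM Texas Red (final). After 2 hours at ambient temperature, read at Ex 595 nm/Em 615 nm.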

[6] = target: Vitamin D3 receptor (Homo sapiens) (UniProt P11473); test: qHTS for Inhibitors of the vitamin D receptor (VDR): Hit Validation using a Beta-Lactamase Assay (AID 602202); details: VDR beta-lactamase reporter cells, FRET ratio, cells co-treated with VDR agonist LG190178; series mostly up to 46.1 µM
Procedure, shortened: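 Stably transfected HEK293 cells expressing VDR-GAL4 DNA-binding domain fusion with UAS-driven beta-lactamase reporter, activated by agonist LG190178; compounds incubated 18 h, then FRET beta-lactam substrate 2 h; cleaved substrate read at 447 nm emission.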

[7] = qHTS for Inhibitors of the vitamin D receptor (VDR): Hit Validation using a Cytotoxicity Assay (AID 602204); details: cytotoxicity counter-screen, cell viability; series mostly up to 48.3 µM;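 also: cells co-treated with VDR agonist LG190178 at 300 nM; nearly all actives have a fitted effect of over 75% in size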
Procedure, shortened: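 Cytotoxicity is flagged by loss of ATP-dependent luminescence in cells treated 18 h with compound. Seeding density was 20,000 cells per well with 4 h pre-incubation; detection took 30 min.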

[8] = target: DNA polymerase eta (Homo sapiens) (UniProt Q9Y253); test: qHTS for Inhibitors of Polymerase Eta: Confirmatory Assay for Cherry-picked Compounds (AID 720502); details: Pol eta primer extension, TAMRA/BHQ fluorescence, 10 min
Procedure, shortened: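 Enzyme at 10 nM is mixed with pin-transferred compound and left 15 min at room temperature. Substrate (50 nM final) is then added, and plates are read at 0 min and after 10 min.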

[9] = target: DNA polymerase kappa (Homo sapiens) (UniProt Q9UBT6); test: qHTS for Inhibitors of Polymerase Kappa: Confirmatory Assay for Cherry-picked Compounds (AID 720501); details: purified Pol-kappa, fluorescent strand-displacement substrate
Procedure, shortened: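 10 nM human Pol-kappa was preincubated with compound 15 min at room temperature, then 50 nM (final) primer/template substrate with TAMRA-labeled reporter strand and BHQ-2-labeled template added. Fluorescence (Ex 525, Em 598 nm) read at 0 and 10 min.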
Potency is read from the fitted curve at half-maximal effect.

| SMILES | Potency [1] | Potency [2] | Potency [3] | activation [4] | Potency [5] | Potency [6] | Potency [7] | Potency [8] | Potency [4] | Potency [9] |
| --- | --- | --- | --- | --- | --- | --- | --- | --- | --- | --- |
| O=c1ccc2c(-c3ccccc3S(=O)(=O)O)c3ccc(O)c(O)c3oc-2c1O | inconclusive: 27.1 µM [inhibitor, partial curve] | active: 7.94 µM | inconclusive: 8.49 µM [inhibitor, single point] | inactive: -15.5% [at 30.8 µM] |  |  |  |  |  |  |
| O=C(O)c1ccc(/C=C2\COc3ccccc3C2=O)cc1 |  | inconclusive: 53.6 µM [inhibitor, partial curve, poor fit] | active: 84.9 µM | inconclusive: 36.4% [activator] | inconclusive: 11.2 µM [inhibitor, partial curve] | inconclusive: 29.1 µM [inhibitor, single point] | inconclusive: 20 µM [rising, partial curve, poor fit] | inconclusive: 75.7 µM [inhibitor, single point] |  |  |
| Cc1cccc(C(=O)Oc2ccc(/C=N/NC(=O)c3cc(O)cc(O)c3)cc2)c1 | inconclusive: 24.1 µM [inhibitor, partial curve] | active: 16.9 µM | inconclusive: 13.5 µM [inhibitor, single point] |  |  |  |  | active: 33.8 µM | inconclusive: 20 µM [activator, partial curve, poor fit] |  |
| Nc1ccc(S(=O)(=O)Nc2nccs2)cc1N=Nc1ccccc1[N+](=O)[O-] |  | inconclusive: 39.8 µM [inhibitor, partial curve] | inconclusive: 4.78 µM [inhibitor, partial curve, poor fit] |  |  |  |  |  | inconclusive: 0.01 µM [activator, full curve, poor fit] | inconclusive: 23.8 µM [inhibitor, full curve, poor fit] |
